Experimental data taken from US20070099822A1, “Regulation of tissue mineralization and phosphate metabolism by asarm peptides” (priority 2003, published 2007).
Results are given in words; binding and its absence hold for the method and conditions named. Some binding calls cover weakened binding; strength is not graded here.

Protein sequences, listed by entry. Tags and fused reporters are not part of them. Residues count along the entry.
UniProt P78562, residues 46-749: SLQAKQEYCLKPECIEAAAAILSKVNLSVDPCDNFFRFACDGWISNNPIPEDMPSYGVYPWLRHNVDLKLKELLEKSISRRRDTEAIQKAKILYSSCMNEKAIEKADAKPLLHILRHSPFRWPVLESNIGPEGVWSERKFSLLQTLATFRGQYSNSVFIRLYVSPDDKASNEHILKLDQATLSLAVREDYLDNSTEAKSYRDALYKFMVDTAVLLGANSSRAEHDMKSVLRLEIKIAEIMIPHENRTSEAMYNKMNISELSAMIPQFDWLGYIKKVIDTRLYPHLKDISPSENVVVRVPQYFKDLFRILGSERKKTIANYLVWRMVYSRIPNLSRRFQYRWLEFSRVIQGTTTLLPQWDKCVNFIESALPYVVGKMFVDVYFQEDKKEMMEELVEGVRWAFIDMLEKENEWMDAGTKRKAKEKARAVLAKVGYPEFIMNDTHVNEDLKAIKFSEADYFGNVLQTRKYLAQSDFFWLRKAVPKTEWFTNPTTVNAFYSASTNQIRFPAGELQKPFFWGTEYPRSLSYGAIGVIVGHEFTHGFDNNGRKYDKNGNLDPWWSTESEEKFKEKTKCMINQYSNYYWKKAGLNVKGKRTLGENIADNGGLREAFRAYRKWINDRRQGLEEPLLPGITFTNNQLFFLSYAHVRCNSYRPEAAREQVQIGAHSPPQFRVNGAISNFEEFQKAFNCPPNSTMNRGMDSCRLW

Target: mammalian expressed human recombinant secreted PHEX (secPHEX) (human) (UniProt P78562)
Assay: SPR, secPHEX immobilized at 3500 RU, secPHEX analyte

binding: binds
Substance: mammalian expressed human recombinant secreted PHEX (secPHEX) (from UniProt P78562 46-749) (enzyme)
